Drawing on patent CN117624352A, this text covers binding for one molecule.

No constants are given. Whether binding was seen depends on the method and setting. Some binding calls cover weakened binding; strength is not graded here. Tags and fused reporters may be left off the sequences shown.

For the assay, the target named is T1, Tmem176b表达纯化抗原142-196aa xy02b-hFc-6His(Abclonal) (mouse) (UniProt Q9R1Q6).
T1 sequence (looked up): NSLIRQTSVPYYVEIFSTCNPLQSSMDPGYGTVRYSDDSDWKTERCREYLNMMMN
In words: Capture ELISA. (An ELISA detects its analyte on a solid surface through an enzyme-linked reagent.)

B1: Tmem176b单克隆抗体6E8 (antibody, V domains shown)
VH: QSVEESGGRLLKPDETLTLTCTVSGFSLSSYAMSWVRQAPGKGLEWIGIISIRGNTYYASWAKGRFTISKTSTTVDLKITSPTTEDTATYFCARNTLYSSGWGGSDLWGQGTLVTVSS
VL: AQVLTQTPSPVSAAVGGTVTINCQASQSVYNNNNLAWYQQKPGQPPKLLIYYASTLASGVSSRFKGSGSGTQFTLTISGVQCDDAATYYCQGEFSCSSADCNAFGGGTEVVVKG
Take B1: the binding result is recorded as “binds”.
